Record: PubChem BioAssay AID743121 (NCATS, 2013)

Screen: 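Genes whose silencing strengthens cell killing by camptothecin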 (primary screen)
Cells: MDA-MB-231 cells, a human breast cancer line
Reagent: single siRNA against human genes, 20 nM siRNA (0.8 pmol per well)
Timing: 120 h (drug added 48 h after transfection, read 72 h later)
Challenge: camptothecin 20 nM (about EC30) for 72 h; vehicle 0.1% DMSO in parallel plates
Measurement: 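CellTiter-Glo ATP signal, scaled to control siRNA as percent viability; sensitisation given as log2 of untreated divided by camptothecin-treated viability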
Scale: log2 vehicle/camptothecin viability: higher = stronger sensitisation to camptothecin
Active means: 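Active genes have an RSA gene-level p-value below 0.001, computed from the ratios of their separate siRNAs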
This is an unselected part of about 26,000 reagents. 167 of them (0.63%) were called active. 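Calls are per gene from RSA p-values that are not deposited; an individual active-marked siRNA can sensitise only weakly.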 A number with no mark means an inactive call. Reagents against one gene are numbered here. Further read-outs or replicates are left out here. Reagent sequences are not shown.

no.	gene symbol	reagent no.	log2 vehicle/camptothecin viability
1	PINK1	1	0.074
2	PINK1	2	-0.0211
3	PINK1	3	-0.239
4	PINK1	4	-0.337
5	AIFM1	1	-0.283
6	AIFM1	2	0.45
7	AIFM1	3	-0.411
8	AIFM1	4	-0.0283
9	AIFM1	5	-0.118
10	AIFM1	6	-0.257
11	AIFM1	7	0.0671
12	AIFM1	8	-0.153
13	NEDD4L	1	-0.575
14	NEDD4L	2	0.243
15	NEDD4L	3	0.361
16	MTMR6	1	0.139
17	MTMR6	2	-0.243
18	MTMR6	3	0.229
19	MTMR6	4	0.0333
20	NPR1	1	0.333
21	NPR1	2	-0.217
22	NPR1	3	-0.236
23	NPR1	4	-0.0998
24	FOXC1	1	-0.272
25	FOXC1	2	-0.335
26	FOXC1	3	0.00914
27	FOXC1	4	-0.227

Copied from the listing (8 entries):
no.	gene symbol	reagent no.	log2 vehicle/camptothecin viability
1	PINK1	1	0.074
2	PINK1	2	-0.0211
3	PINK1	3	-0.239
4	PINK1	4	-0.337
5	AIFM1	1	-0.283
6	AIFM1	2	0.45
7	AIFM1	3	-0.411
8	AIFM1	4	-0.0283

The list goes on:
no.	gene symbol	reagent no.	log2 vehicle/camptothecin viability
28	FBXO31	1	0.273
29	FBXO31	2	-0.381
30	FBXO31	3	-0.111
31	FBXO31	4	0.456
32	SC5D	1	-0.0697
33	SC5D	2	-0.23
34	SC5D	3	-0.656
35	SC5D	4	0.125
36	TLR10	1	0.226
37	TLR10	2	-0.0969
38	TLR10	3	-0.182
39	TLR10	4	0.0647
40	IGBP1	1	-0.0768
41	IGBP1	2	0.427
42	IGBP1	3	-0.19
43	IGBP1	4	0.375
44	GPR171	1	-0.345
45	GPR171	2	-0.173
46	GPR171	3	0.153
47	GPR171	4	0.0222
48	PAOX	1	-0.254
49	PAOX	2	-0.528
50	PAOX	3	-0.111
51	DHH	1	-0.516
52	DHH	2	0.282
53	DHH	3	-0.474
54	DHH	4	-0.0678
55	CHFR	1	-0.256
56	CHFR	2	-0.556
57	CHFR	3	-0.224
58	CHFR	4	-0.505
59	BNIP3L	1	-0.461
60	BNIP3L	2	-0.0241
61	BNIP3L	3	-0.0952
62	BNIP3L	4	-0.285
63	PGAP1	1	0.0369
64	PGAP1	2	0.00562
65	PGAP1	3	-0.344
66	GKAP1	1	-0.178
67	GKAP1	2	-0.0825
68	GKAP1	3	0.882
69	GKAP1	4	0.0173
